Assay results from US8603531B2, “Nanometer-sized prodrugs of NSAIDs” (Cedars-Sinai Medical Center, priority 2008, dated 2013).

Test: Oxidative destabilization of nanoprodrugs (turbidity at 500 nm after HOCl)
Conditions: nanoprodrug 250 μM, HOCl 25-1000 μM, PBS pH 7.4
Description: The nanoprodrugs were purified by centrifuging three times at 20,000×g for 10 min at 25° C. and resuspending each time in the same volume of deionized water. The purified nanoprodrugs were resuspended in phosphate buffered saline (PBS, pH 7.4) to give the final concentration of 250 μM NSAID derivatives. The concentration of HOCl in the diluted commercial sodium hypochlorite solution was determined spectrophotometrically (ε292=350 M^−1 cm^−1) (Morris, 1966). HOCl was added to the suspension of nanoprodrugs to give the final concentration of 25-1000 μM and the reduction in turbidity was measured immediately using ultraviolet/visible spectrometer (Bio-Rad SmartSpec™ 3000, Hercules, Calif., USA) at room temperature with a wavelength λ=500 nm.

CC(C)Cc1ccc(C(C)C(=O)OCCOCCOCCOCCOC(=O)C(C)c2ccc(CC(C)C)cc2)cc1 (stereo not drawn) [Ibu2TEG, Tetraethylene glycol(ibuprofen)2]
Change in OD (turbidity, 500 nm) in the presence of HOCl: did not show any changes in OD

COc1ccc2c(c1)c(CC(=O)OCCOCCOCCOCCOC(=O)Cc1c(C)n(C(=O)c3ccc(Cl)cc3)c3ccc(OC)cc13)c(C)n2C(=O)c1ccc(Cl)cc1 [Ind2TEG]
Change in OD (turbidity, 500 nm) in the presence of HOCl: did not show any changes in OD

COc1ccc2cc(C(C)C(=O)OCCOCCOCCOCCOC(=O)C(C)c3ccc4cc(OC)ccc4c3)ccc2c1 (stereo not drawn) [Npx2TEG]
Change in OD (turbidity, 500 nm) in the presence of HOCl: did not show any changes in OD

Some compounds share one wording; it may come from a single statement.
